Experimental data reported in PMC11672691.
These are yes or no findings as the source states them, for the method shown. For some assays here: Binding seen in cells or lysates may run through a third protein. Some entries that bind do so weakly or less than the wild type. For some assays here: Sequences can lack the tags named with a protein. One block for each molecule: values may come before it.

Chains of the proteins cited; added tags and fusions are not shown. Lines headed by an entry give the natural chain unless they say otherwise; changes in a name come on top. Residues count along the entry.
UniProt Q99623: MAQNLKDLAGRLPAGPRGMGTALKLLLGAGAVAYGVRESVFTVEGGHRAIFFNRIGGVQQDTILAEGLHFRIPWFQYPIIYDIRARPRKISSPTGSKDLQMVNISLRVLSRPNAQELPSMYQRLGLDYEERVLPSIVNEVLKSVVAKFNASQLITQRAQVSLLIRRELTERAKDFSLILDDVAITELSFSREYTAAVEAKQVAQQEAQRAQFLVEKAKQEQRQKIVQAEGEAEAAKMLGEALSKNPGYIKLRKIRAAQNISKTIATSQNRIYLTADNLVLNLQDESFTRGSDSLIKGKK
UniProt Q99595: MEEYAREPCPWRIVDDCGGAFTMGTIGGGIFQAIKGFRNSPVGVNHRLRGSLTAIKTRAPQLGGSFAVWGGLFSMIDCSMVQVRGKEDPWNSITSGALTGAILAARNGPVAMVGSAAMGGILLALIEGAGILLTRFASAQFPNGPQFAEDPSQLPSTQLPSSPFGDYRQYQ
UniProt O60830: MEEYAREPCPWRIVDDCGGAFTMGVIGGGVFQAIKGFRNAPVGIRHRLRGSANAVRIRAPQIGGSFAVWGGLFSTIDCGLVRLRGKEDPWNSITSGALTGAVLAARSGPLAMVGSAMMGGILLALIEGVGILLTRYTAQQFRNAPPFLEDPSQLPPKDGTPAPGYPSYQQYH
UniProt Q15388: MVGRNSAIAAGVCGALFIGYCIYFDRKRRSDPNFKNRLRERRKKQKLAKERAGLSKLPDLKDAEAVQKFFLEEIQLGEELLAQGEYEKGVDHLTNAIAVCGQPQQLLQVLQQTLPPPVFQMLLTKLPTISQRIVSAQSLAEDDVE
UniProt Q9Y4W6, residues 67-797: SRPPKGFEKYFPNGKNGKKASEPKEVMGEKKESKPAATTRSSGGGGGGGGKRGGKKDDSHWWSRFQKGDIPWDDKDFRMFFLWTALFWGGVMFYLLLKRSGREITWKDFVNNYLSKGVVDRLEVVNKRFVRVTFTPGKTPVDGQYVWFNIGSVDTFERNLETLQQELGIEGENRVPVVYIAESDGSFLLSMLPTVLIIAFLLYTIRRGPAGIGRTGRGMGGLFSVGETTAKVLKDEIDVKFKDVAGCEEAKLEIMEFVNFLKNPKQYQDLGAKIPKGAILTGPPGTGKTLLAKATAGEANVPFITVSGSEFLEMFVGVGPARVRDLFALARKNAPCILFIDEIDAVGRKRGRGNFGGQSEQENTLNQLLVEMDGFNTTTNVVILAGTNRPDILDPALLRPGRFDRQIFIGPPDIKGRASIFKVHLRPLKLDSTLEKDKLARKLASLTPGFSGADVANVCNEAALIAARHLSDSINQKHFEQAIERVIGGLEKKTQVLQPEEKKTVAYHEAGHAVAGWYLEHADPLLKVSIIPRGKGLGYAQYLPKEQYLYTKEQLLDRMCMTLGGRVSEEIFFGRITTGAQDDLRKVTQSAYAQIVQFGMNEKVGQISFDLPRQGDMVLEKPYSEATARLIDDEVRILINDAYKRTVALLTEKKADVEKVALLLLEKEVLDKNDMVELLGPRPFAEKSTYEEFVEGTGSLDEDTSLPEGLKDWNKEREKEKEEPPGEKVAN

Experiments:
[1] = target: PHB2-HA (Prohibitin 2 with C-terminal HA tag) (human) (UniProt Q99623); experiment: co-IP; mitochondria of HEK293T cells transiently expressing the HA-tagged bait (PHB2-HA, HA-TIMM17A, HA-TIMM17B) or an empty vector, solubilised with digitonin (3:1 w/w detergent to protein) in Buffer B (0.22 M mannitol, 0.07 M sucrose, 0.02 M HEPES-KOH pH 7.6, 1 mM EDTA), anti-HA agarose 1 h at 4°C, eluted with sample buffer, SDS-PAGE and western blot
[2] = target: T1, TIMM23_(FLAG) (human) (UniProt O14925); experiment: co-IP; mitochondria of cells expressing the FLAG-tagged bait (OCIAD1_(FLAG) transiently in HEK293; TIMM21_(FLAG), TIMM23_(FLAG) tetracycline-induced in HEK293T) or an empty vector, solubilised in 1% digitonin buffer (150 mM NaCl, pH 7.4), anti-FLAG M2 affinity gel 2 h at 4°C, washed with 0.3% digitonin, eluted with Laemmli buffer, SDS-PAGE and western blot
T1 sequence: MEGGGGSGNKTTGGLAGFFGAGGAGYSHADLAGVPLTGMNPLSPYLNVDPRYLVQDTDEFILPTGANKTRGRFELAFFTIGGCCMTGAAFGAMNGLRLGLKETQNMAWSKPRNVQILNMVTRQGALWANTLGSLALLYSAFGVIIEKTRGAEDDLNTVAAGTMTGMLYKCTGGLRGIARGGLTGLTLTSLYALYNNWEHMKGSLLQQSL

[3] = target: T2, TIMM21_(FLAG) (human) (UniProt Q9BVV7); experiment: as above
T2 sequence: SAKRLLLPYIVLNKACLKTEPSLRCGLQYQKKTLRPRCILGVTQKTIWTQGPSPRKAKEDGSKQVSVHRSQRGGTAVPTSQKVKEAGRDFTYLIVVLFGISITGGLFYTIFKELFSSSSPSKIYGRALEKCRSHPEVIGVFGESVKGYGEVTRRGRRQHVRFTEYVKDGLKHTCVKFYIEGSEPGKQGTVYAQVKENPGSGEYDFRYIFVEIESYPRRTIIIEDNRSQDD

[4] = target: T3, OCIAD1_(FLAG) (ovarian cancer immunoreactive antigen domain-containing protein 1, FLAG-tagged) (human) (UniProt Q9NX40); experiment: as above
T3 sequence: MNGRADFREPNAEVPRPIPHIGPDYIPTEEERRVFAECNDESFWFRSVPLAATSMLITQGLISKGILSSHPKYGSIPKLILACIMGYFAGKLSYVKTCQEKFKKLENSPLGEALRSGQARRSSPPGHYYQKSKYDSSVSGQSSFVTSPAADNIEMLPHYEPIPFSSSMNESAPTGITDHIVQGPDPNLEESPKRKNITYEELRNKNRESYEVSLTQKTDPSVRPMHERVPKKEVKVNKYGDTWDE

[5] = target: HA-TIMM17A (human) (UniProt Q99595); experiment: co-IP; mitochondria of HEK293T cells transiently expressing the HA-tagged bait (PHB2-HA, HA-TIMM17A, HA-TIMM17B) or an empty vector, solubilised with digitonin (3:1 w/w detergent to protein) in Buffer B (0.22 M mannitol, 0.07 M sucrose, 0.02 M HEPES-KOH pH 7.6, 1 mM EDTA), anti-HA agarose 1 h at 4°C, eluted with sample buffer, SDS-PAGE and western blot
[6] = target: HA-TIMM17B (human) (UniProt O60830); experiment: as above
[7] = target: PHB2 (endogenous) (human (endogenous in HEK293 and HEK293T)) (UniProt Q99623); experiment: native gel or EMSA; in organello import of [^35S]OCIAD1 into mitochondria isolated from HEK293 control and PHB2 siRNA-depleted cells, solubilised in 1% digitonin buffer, 3%-13% BN-PAGE, autoradiography

binding [4]: binds
Molecule: TOMM20 (endogenous) (from UniProt Q15388 1-145)

binding [4]: binds
Molecule: AFG3L2 (endogenous) (from UniProt Q9Y4W6 67-797) (enzyme)

binding [5]: binds
binding [1]: binds
binding [6]: binds
binding [4]: binds
B1: TIMM23 (endogenous) (protein, UniProt O14925 1-209)
chain: MEGGGGSGNKTTGGLAGFFGAGGAGYSHADLAGVPLTGMNPLSPYLNVDPRYLVQDTDEFILPTGANKTRGRFELAFFTIGGCCMTGAAFGAMNGLRLGLKETQNMAWSKPRNVQILNMVTRQGALWANTLGSLALLYSAFGVIIEKTRGAEDDLNTVAAGTMTGMLYKCTGGLRGIARGGLTGLTLTSLYALYNNWEHMKGSLLQQSL

binding [4]: binds
B2: TIMM22 (endogenous) (protein, UniProt Q9Y584 1-194)
chain: MAAAAPNAGGSAPETAGSAEAPLQYSLLLQYLVGDKRQPRLLEPGSLGGIPSPAKSEEQKMIEKAMESCAFKAALACVGGFVLGGAFGVFTAGIDTNVGFDPKDPYRTPTAKEVLKDMGQRGMSYAKNFAIVGAMFSCTECLIESYRGTSDWKNSVISGCITGGAIGFRAGLKAGAIGCGGFAAFSAAIDYYLR

Second part, the molecule before the results:

Molecule: TIMM17B (endogenous) (from UniProt O60830-1 1-172)
binding [1]: binds

Molecule: TIMM17A (endogenous) (from UniProt Q99595 1-171)
binding [1]: binds
binding [2]: binds
binding [3]: binds

B3: OCIAD1 (endogenous) (protein, UniProt Q9NX40 1-245)
chain: MNGRADFREPNAEVPRPIPHIGPDYIPTEEERRVFAECNDESFWFRSVPLAATSMLITQGLISKGILSSHPKYGSIPKLILACIMGYFAGKLSYVKTCQEKFKKLENSPLGEALRSGQARRSSPPGHYYQKSKYDSSVSGQSSFVTSPAADNIEMLPHYEPIPFSSSMNESAPTGITDHIVQGPDPNLEESPKRKNITYEELRNKNRESYEVSLTQKTDPSVRPMHERVPKKEVKVNKYGDTWDE
binding [5]: binds
binding [1]: binds
binding [6]: binds
binding [2]: binds
binding [3]: binds

B4: [^35S]OCIAD1 (radiolabeled OCIAD1 precursor) (protein, UniProt Q9NX40 1-245)
chain: MNGRADFREPNAEVPRPIPHIGPDYIPTEEERRVFAECNDESFWFRSVPLAATSMLITQGLISKGILSSHPKYGSIPKLILACIMGYFAGKLSYVKTCQEKFKKLENSPLGEALRSGQARRSSPPGHYYQKSKYDSSVSGQSSFVTSPAADNIEMLPHYEPIPFSSSMNESAPTGITDHIVQGPDPNLEESPKRKNITYEELRNKNRESYEVSLTQKTDPSVRPMHERVPKKEVKVNKYGDTWDE
modifications: 35S radiolabel ([^35S]methionine)
binding [7]: binds
